Values from PubChem BioAssay AID1224826 (NIAID, 2016).

Test: 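Knock-downs that raise or lower Tnf reporter signal after endotoxin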 (primary screen)
Cell system: RAW264.7 G9 macrophages from mouse bearing reporters for p65 (GFP) and the Tnf promoter (mCherry)
Reagents: siRNA pool against mouse genes, 100 nM
Timing: 16 h of LPS stimulation, after 2 days of siRNA transfection
Treatment: bacterial lipopolysaccharide (Salmonella minnesota R595), 10 ng/ml
Measurement: 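Imaged Tnf reporter mCherry in nuclei, minus background, normalised per plate to the median and expressed as robust z-scores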
Reading the numbers: Tnf reporter robust z-score: higher = stronger Tnf promoter reporter signal after LPS
Active means: 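Called active when robust z-score is at most -1.3, matching the median of the Tlr4 knock-down control, or over 3; control wells and wells with under 50 cells never active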
Calls: active = Tnf reporter clearly lowered or raised; inactive = no clear change in Tnf reporter
In all, the deposit lists about 17,000 reagents; below is a part drawn at random. Of all reagents, about 1,110 (6.6%) got an active call. 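Active means lowered or raised reporter signal; replicate intensities are raw and not normalised per plate.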 Further read-outs or replicates are left out here. Reagent sequences are not shown.

Knock-down of Spata31f3 gave: Tnf reporter robust z-score 1.41; fewer than 50 cells in well enough cells in well; inactive.
Chst10 showed Tnf reporter robust z-score 0.62; fewer than 50 cells in well enough cells in well; inactive.
After knock-down of 4930433I11Rik, the screen gave Tnf reporter robust z-score 1.04; fewer than 50 cells in well enough cells in well; inactive.
Silencing of Or6c215 resulted in: Tnf reporter robust z-score 0.32; fewer than 50 cells in well enough cells in well; inactive.
With knock-down of Rcan3, the record shows Tnf reporter robust z-score -0.85; fewer than 50 cells in well enough cells in well; inactive.
Against Mex3b the deposit lists Tnf reporter robust z-score -1.06; fewer than 50 cells in well enough cells in well; inactive.
Knock-down of Dsg4 came out at: Tnf reporter robust z-score -1.46; fewer than 50 cells in well enough cells in well; active.
Sf3b6 showed Tnf reporter robust z-score -1.52; fewer than 50 cells in well enough cells in well; active.
Against Hdac7 the deposit lists Tnf reporter robust z-score -1.42; fewer than 50 cells in well enough cells in well; active.
Knock-down of Srrm4 gave: Tnf reporter robust z-score 0.78; fewer than 50 cells in well enough cells in well; inactive.

Records listed so far marked active:
Dsg4 → Tnf reporter robust z-score: -1.46; fewer than 50 cells in well: enough cells in well; Outcome: active
Sf3b6 → Tnf reporter robust z-score: -1.52; fewer than 50 cells in well: enough cells in well; Outcome: active
Hdac7 → Tnf reporter robust z-score: -1.42; fewer than 50 cells in well: enough cells in well; Outcome: active

The list goes on.
With knock-down of Patl2, the screen gave Tnf reporter robust z-score 3.31; fewer than 50 cells in well enough cells in well; active.
Against Smarcb1 the deposit lists Tnf reporter robust z-score 0.46; fewer than 50 cells in well enough cells in well; inactive.
For Cops4, the values are Tnf reporter robust z-score 0.23; fewer than 50 cells in well enough cells in well; inactive.
Knock-down of Pttg1 came out at: Tnf reporter robust z-score -0.06; fewer than 50 cells in well enough cells in well; inactive.
Fmo3 scored Tnf reporter robust z-score 0.35; fewer than 50 cells in well enough cells in well; inactive.
Tmem123 showed Tnf reporter robust z-score -0.23; fewer than 50 cells in well enough cells in well; inactive.
For Zfp763 the deposit lists Tnf reporter robust z-score -0.86; fewer than 50 cells in well enough cells in well; inactive.
Dennd4b gave Tnf reporter robust z-score -0.47; fewer than 50 cells in well enough cells in well; inactive.
Silencing of Ppp2r5a resulted in: Tnf reporter robust z-score -0.23; fewer than 50 cells in well enough cells in well; inactive.
Galr1 scored Tnf reporter robust z-score 0.53; fewer than 50 cells in well enough cells in well; inactive.
After knock-down of Klrd1, the record shows Tnf reporter robust z-score 0.09; fewer than 50 cells in well enough cells in well; inactive.
Silencing of Msn gave: Tnf reporter robust z-score -1.5; fewer than 50 cells in well enough cells in well; active.
For Batf the deposit lists Tnf reporter robust z-score 1.75; fewer than 50 cells in well enough cells in well; inactive.
Knock-down of Gtf3c5 came out at: Tnf reporter robust z-score -0.85; fewer than 50 cells in well enough cells in well; inactive.
Depletion of Amph gave: Tnf reporter robust z-score -0.6; fewer than 50 cells in well enough cells in well; inactive.
Tmem135 scored Tnf reporter robust z-score 0.27; fewer than 50 cells in well enough cells in well; inactive.
Pdzk1 scored Tnf reporter robust z-score 0; fewer than 50 cells in well enough cells in well; inactive.
